From US10323078B2, “Isolated peptides and fragments thereof from fibrinogen for use as drugs, particularly in skin inflammatory diseases” (Universite Paris Descartes, priority 2015, dated 2019)
Part of at least one peptide drawing is inferred or uncertain, most often the ends. Ends that are not written are not given here.

System: P. acnes-induced inflammation
Experiment: P. acnes-induced ear inflammation in vivo (score: ear thickness, peeling, redness)
Details: mice, followed 96 h

## LLLCVFLVKSQGVND [Fg1.1.1, LLLCVFLVKSQGVND]
P. acnes pre-treated 1 h at 37° C. with peptide 140 μM, then intradermally injected
  Decrease of ear inflammation: able to decrease the ear inflammation
Topical application of 5% Fg1.1.1 peptide gel in vaseline each day for 3 days after intradermal P. acnes
  Decrease of ear inflammation: able to decrease the ear inflammation
